# Results are given in words; binding and its absence hold for the method and conditions named. Binding seen in cells or lysates may run through a third protein. These calls come from enrichment with a bait or labelling near it, and not all partners need be listed. For part of these data: No binding means not detected with the bait. For part of these data: Tags and fused reporters may be left off the sequences shown.
# The chains behind the UniProt entries cited, without tags or fusion partners. Residues count along the entry.
# UniProt O75251, residues 39-213: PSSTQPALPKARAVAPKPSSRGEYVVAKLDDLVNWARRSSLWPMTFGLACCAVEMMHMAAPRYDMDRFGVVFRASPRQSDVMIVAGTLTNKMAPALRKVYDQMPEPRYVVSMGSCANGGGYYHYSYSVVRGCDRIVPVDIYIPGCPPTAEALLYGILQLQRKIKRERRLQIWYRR
# UniProt Q9BU61: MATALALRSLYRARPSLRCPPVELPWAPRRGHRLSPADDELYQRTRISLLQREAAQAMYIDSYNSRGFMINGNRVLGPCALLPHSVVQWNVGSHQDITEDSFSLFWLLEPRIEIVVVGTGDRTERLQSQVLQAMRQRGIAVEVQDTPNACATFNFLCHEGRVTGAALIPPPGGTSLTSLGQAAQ
# UniProt Q9P032: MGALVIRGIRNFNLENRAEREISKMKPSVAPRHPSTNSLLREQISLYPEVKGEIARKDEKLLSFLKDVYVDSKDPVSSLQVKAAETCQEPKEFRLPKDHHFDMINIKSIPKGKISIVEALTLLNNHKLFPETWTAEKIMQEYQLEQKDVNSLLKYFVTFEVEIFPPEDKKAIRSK
# UniProt Q16718: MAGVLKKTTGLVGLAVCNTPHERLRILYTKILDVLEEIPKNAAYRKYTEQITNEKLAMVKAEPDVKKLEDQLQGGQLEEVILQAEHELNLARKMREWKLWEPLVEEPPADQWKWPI
# UniProt O00217, residues 35-210: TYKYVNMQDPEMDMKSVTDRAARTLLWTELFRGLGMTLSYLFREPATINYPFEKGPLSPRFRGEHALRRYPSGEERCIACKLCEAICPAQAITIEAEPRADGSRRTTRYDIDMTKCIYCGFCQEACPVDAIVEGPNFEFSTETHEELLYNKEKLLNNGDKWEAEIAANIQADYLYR
# UniProt Q9UBS4, residues 23-358: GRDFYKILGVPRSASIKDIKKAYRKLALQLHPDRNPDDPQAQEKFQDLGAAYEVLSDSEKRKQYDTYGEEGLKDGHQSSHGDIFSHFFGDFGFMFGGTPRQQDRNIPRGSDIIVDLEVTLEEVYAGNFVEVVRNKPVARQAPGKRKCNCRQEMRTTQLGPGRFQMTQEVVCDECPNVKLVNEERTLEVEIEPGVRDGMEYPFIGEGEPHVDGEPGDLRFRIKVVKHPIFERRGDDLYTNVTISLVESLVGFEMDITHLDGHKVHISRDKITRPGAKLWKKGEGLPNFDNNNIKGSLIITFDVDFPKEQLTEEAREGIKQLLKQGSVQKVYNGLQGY
# UniProt P03886: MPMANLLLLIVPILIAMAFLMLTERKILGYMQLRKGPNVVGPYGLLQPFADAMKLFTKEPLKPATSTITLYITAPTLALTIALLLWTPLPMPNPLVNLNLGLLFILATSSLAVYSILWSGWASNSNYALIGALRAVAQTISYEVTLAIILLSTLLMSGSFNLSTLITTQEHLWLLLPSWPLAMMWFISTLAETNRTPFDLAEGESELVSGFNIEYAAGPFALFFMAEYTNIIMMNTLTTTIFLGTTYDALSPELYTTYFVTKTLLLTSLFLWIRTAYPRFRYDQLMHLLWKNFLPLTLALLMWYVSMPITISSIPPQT
# T1: NDUFAF5 with C-terminal FLAG and StrepII tags (human) (UniProt Q5TEU4)
# T1 sequence: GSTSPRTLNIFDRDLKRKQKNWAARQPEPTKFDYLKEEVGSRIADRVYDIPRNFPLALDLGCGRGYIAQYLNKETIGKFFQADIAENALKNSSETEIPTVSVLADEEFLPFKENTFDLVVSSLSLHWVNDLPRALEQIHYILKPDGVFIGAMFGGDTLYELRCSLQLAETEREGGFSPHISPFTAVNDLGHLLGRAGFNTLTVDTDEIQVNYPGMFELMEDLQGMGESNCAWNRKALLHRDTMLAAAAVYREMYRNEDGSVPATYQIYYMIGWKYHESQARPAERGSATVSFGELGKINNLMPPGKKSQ
# Target: NDUFS7 with C-terminal FLAG and StrepII tags (human) (UniProt O75251)
# Assay: affinity purification with mass spectrometry; SILAC-labeled HEK293T cells overexpressing tagged-NDUFS7, control cells overexpressing tagged-NDUFB3; Strep-tag II affinity purification from mitoplasts, samples mixed, SDS-PAGE, tryptic digestion, quantitative mass spectrometry; both labeling orientations
row,Molecule,binding
1,"α-aminoadipic semialdehyde dehydrogenase (enzyme, UniProt P49419 27-539) AFMSTLLINQPQYAWLKELGLREENEGVYNGSWGGRGEVITTYCPANNEPIARVRQASVADYEETVKKAREAWKIWADIPAPKRGEIVRQIGDALREKIQVLGSLVSLEMGKILVEGVGEVQEYVDICDYAVGLSRMIGGPILPSERSGHALIEQWNPVGLVGIITAFNFPVAVYGWNNAIAMICGNVCLWKGAPTTSLISVAVTKIIAKVLEDNKLPGAICSLTCGGADIGTAMAKDERVNLLSFTGSTQVGKQVGLMVQERFGRSLLELGGNNAIIAFEDADLSLVVPSALFAAVGTAGQRCTTARRLFIHESIHDEVVNRLKKAYAQIRVGNPWDPNVLYGPLHTKQAVSMFLGAVEEAKKEGGTVVYGGKVMDRPGNYVEPTIVTGLGHDASIAHTETFAPILYVFKFKNEEEVFAWNNEVKQGLSSSIFTKDLGRIFRWLGPKGSDCGIVNVNIPTSGAEIGGAFGGEKHTGGGRESGSDAWKQYMRRSTCTINYSKDLPLAQGIKFQ",binds
2,"NDUFAF5 (endogenous) (enzyme, UniProt Q5TEU4 37-345) GSTSPRTLNIFDRDLKRKQKNWAARQPEPTKFDYLKEEVGSRIADRVYDIPRNFPLALDLGCGRGYIAQYLNKETIGKFFQADIAENALKNSSETEIPTVSVLADEEFLPFKENTFDLVVSSLSLHWVNDLPRALEQIHYILKPDGVFIGAMFGGDTLYELRCSLQLAETEREGGFSPHISPFTAVNDLGHLLGRAGFNTLTVDTDEIQVNYPGMFELMEDLQGMGESNCAWNRKALLHRDTMLAAAAVYREMYRNEDGSVPATYQIYYMIGWKYHESQARPAERGSATVSFGELGKINNLMPPGKKSQ",binds

# Target: NDUFS7 with C-terminal FLAG and StrepII tags (human) (UniProt O75251)
# Assay: as above
# Remark: another data set of the same source
row,Molecule,binding
1,assembly factor NDUFAF3 (from UniProt Q9BU61 1-184),binds
2,assembly factor NDUFAF4 (from UniProt Q9P032 1-175),binds
3,complex I subunit NDUFA5 (from UniProt Q16718 1-116),binds
4,complex I subunit NDUFS8 (from UniProt O00217 35-210),binds

# Target: T1, NDUFAF5 with C-terminal FLAG and StrepII tags (human)
# Assay: affinity purification with mass spectrometry; SILAC-labeled HEK293T cells overexpressing tagged-NDUFAF5, control cells overexpressing tagged-METTL12; Strep-tag II affinity purification from mitoplasts, samples mixed, SDS-PAGE, tryptic digestion, quantitative mass spectrometry; both labeling orientations
row,Molecule,binding
1,DNAJ homolog subfamily B member 11 (from UniProt Q9UBS4 23-358),binds
2,MT-ND1 (from UniProt P03886 1-318),no binding
3,NDUFS7 subunit of complex I (endogenous) (from UniProt O75251 39-213),binds
4,"iron-sulfur cluster scaffold homolog NFU1 (protein, UniProt Q9UMS0 10-254) GAAAVAAGLRRRFCHMLKNPYTIKKQPLHQFVQRPLFPLPAAFYHPVRYMFIQTQDTPNPNSLKFIPGKPVLETRTMDFPTPAAAFRSPLARQLFRIEGVKSVFFGPDFITVTKENEELDWNLLKPDIYATIMDFFASGLPLVTEETPSGEAGSEEDDEVVAMIKELLDTRIRPTVQEDGGDVIYKGFEDGIVQLKLQGSCTSCPSSIITLKNGIQNMLQFYIPEVEGVEQVMDDESDEKEANSP",binds
5,"stroma cell-derived factor 2 (protein, UniProt Q99470 19-211) SSLGVVTCGSVVKLLNTRHNVRLHSHDVRYGSGSGQQSVTGVTSVDDSNSYWRIRGKSATVCERGTPIKCGQPIRLTHVNTGRNLHSHHFTSPLSGNQEVSAFGEEGEGDYLDDWTVLCNGPYWVRDGEVRFKHSSTEVLLSVTGEQYGRPISGQKEVHGMAQPSQNNYWKAMEGIFMKPSELLKAEAHHAEL",binds
6,"stroma cell-derived factor 2-like (protein, UniProt Q9HCN8 29-221) AKTGAELVTCGSVLKLLNTHHRVRLHSHDIKYGSGSGQQSVTGVEASDDANSYWRIRGGSEGGCPRGSPVRCGQAVRLTHVLTGKNLHTHHFPSPLSNNQEVSAFGEDGEGDDLDLWTVRCSGQHWEREAAVRFQHVGTSVFLSVTGEQYGSPIRGQHEVHGMPSANTHNTWKAMEGIFIKPSVEPSAGHDEL",binds

# Source: article PMC4938201
